Laboratory results published in PubChem BioAssay AID1469 (National Center for Advancing Translational Sciences (NCATS), 2008).
The whole screen tested about 280,000 compounds, of which about 180 (0.064%) were called active. Inconclusive results, whose numbers are uncertain, are shown with a selection of clear calls. Calls come from the whole dose curve; as a rule, active = well fitted inhibition curve with a large enough effect; inconclusive = small, poorly fitted or top-dose-only effect, or effect the other way; inactive = flat fitted curve, though single readings scatter. Potencies beside an inconclusive call are fits to weak or partial responses and may not hold up.

By UniProt entry, the sequences of proteins in these tests, tags left out. Where a name states a change or a piece, a line headed by the entry shows the natural chain unless it says otherwise.
UniProt P10828: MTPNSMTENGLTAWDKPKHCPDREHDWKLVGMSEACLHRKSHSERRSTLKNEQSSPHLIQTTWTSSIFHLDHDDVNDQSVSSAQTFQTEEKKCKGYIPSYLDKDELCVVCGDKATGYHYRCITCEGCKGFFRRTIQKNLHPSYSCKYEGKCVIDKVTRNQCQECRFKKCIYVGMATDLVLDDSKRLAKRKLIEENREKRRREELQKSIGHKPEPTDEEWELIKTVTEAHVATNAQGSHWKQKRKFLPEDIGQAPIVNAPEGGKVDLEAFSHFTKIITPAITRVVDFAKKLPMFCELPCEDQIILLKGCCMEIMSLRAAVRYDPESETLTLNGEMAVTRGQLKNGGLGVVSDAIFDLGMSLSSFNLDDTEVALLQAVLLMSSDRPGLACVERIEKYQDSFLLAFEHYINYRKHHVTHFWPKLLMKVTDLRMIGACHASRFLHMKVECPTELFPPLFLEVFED

What follows are compounds tested against Thyroid hormone receptor beta (Homo sapiens) (UniProt P10828) (assay: qHTS for Inhibitors of the Interaction of Thyroid Hormone Receptor and Steroid Receptor Coregulator 2). Settings: TRbeta-SRC2 peptide binding, fluorescence polarization, receptor liganded with 1 µM T3; series mostly up to 106 µM.
Procedure, shortened: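 Compounds were added to 0.6 uM TRb ligand-binding domain and 20 nM Texas Red-labeled SRC2 peptide in Tris buffer containing 1 uM T3, incubated 5 hr at ambient temperature, then read by fluorescence polarization.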
Note: nearly all actives have a fitted effect of over 50% in size.
Potency is the fitted concentration of half-maximal effect.

Row | Compound | Potency
1 | COCC1CCN(Cc2cn[nH]c2-c2ccc(OC)c(F)c2)C1 (stereo unspecified) | inactive
2 | N#C/C(=C\C=C\c1ccccc1)c1nc(-c2ccc3c(c2)OCO3)cs1 | inconclusive: 15.8 µM [inhibitor, full curve, poor fit]
3 | CCOc1ccc(OC(=O)c2sc3ncn(Cc4cccc(F)c4)c(=O)c3c2C)cc1 | inactive
4 | CC1=C(C#N)c2nc(N)c(C#N)c(C)c2/C1=C\c1ccc(-c2ccccc2C(=O)O)o1 | inconclusive: 1 µM [inhibitor, full curve, poor fit]
5 | Cc1cccc(S(=O)(=O)c2cn(Cc3ccccc3)c3cc(N4CCC(C)CC4)c(F)cc3c2=O)c1 | inconclusive: 0.794 µM [inhibitor, full curve]
6 | CCOC(=O)c1ccc(NC(=S)Nc2cccc(C)n2)cc1 | inactive
7 | CC(=O)Nc1ccc(NC(=O)/C=C/c2cccc(C(F)(F)F)c2)cc1 | inconclusive: 2 µM [inhibitor, partial curve]
8 | COc1cccc(OC)c1-c1nn2c(-c3cc(-c4ccccc4)n[nH]3)nnc2s1 | inconclusive: 44.7 µM [activator, partial curve]
9 | O=C(/C=C/Nc1ccc(F)cc1F)c1cccs1 | inactive
10 | CCOc1cc(CNc2ccc(N(C)C)cc2)cc(Br)c1OCC(=O)NC(C)(C)C | active: 39.8 µM
11 | CCOc1ccc(CNC(=O)Cn2c(=O)c3cccn3c3ccc(F)cc32)cc1 | inactive
12 | CCC(Sc1nnc2c3ccccc3n(CC)c2n1)C(=O)Nc1nnc(C(C)C)s1 (stereo unspecified) | inactive
13 | O=C(Nc1ccc(-c2nc3cc(Cl)ccc3o2)cc1)c1cc2ccccc2o1 | inconclusive: 79.4 µM [inhibitor, single point]
14 | Cc1n[nH]c(=S)n(NC(=O)CC(=O)Nn2c(=S)[nH]nc(C)c2=O)c1=O | inactive
15 | COc1ccc(-c2nc(CS(=O)CC(=O)NCc3ccccn3)c(C)o2)cc1 (stereo unspecified) | inconclusive: 50.1 µM [inhibitor, partial curve]
16 | CCOc1cc(/C=C2\SC(=S)N(NC(=O)c3cccnc3)C2=O)ccc1O | inconclusive: 50.1 µM [activator, single point]
17 | Cc1cc2cc(CNC(=O)c3ccc(S(=O)(=O)N4CCCC4)cc3)ccc2n1C | active: 35.5 µM
18 | Cc1ccc(NS(=O)(=O)c2ccc(Cl)c(C(=O)Nc3ccccc3-c3nc4ccccc4[nH]3)c2)cc1C | inactive
19 | CC(=O)N1CCN(c2ccc(NCc3ccc(C)s3)cc2)CC1 | inconclusive: 50.1 µM [inhibitor, partial curve]
20 | N#C/C(=N/Nc1ccc(OC(F)(F)F)cc1)C(N)=S | inactive
21 | Nc1nnc(SCC(=O)N2CCc3ccccc32)n1-c1ccccc1 | inconclusive: 79.4 µM [inhibitor, partial curve, poor fit]
22 | Cc1cc(N=Cc2c(O)ccc3cc(Br)ccc23)no1 | inconclusive: 70.8 µM [inhibitor, single point]

Row | Compound | Potency
23 | C=CC(=O)OCCOCC(CC)(COCCOC(=O)C=C)COCCOC(=O)C=C | inconclusive: 50.1 µM [inhibitor, partial curve]
24 | CCOc1ccc(N=C(C)C2=C(O)c3ccccc3C2=O)cc1 | inactive
25 | O=C1C=C(Nc2ccccc2O)c2ccccc2C1=O | inconclusive: 39.8 µM [inhibitor, partial curve]
26 | O=C(COc1ccccc1)NC(=S)Nc1cccc([N+](=O)[O-])c1 | inconclusive: 2.51 µM [activator, partial curve]
27 | CC(=O)Nc1cc(OC(C)=O)c2nonc2c1OC(C)=O | active: 1.58 µM
28 | Nc1ccc(N2CCCCCC2)cc1 | active: 44.7 µM
29 | O=C(Nc1cccc(-c2nc3ccccc3[nH]2)c1)c1ccc(C(=O)Nc2cccc(-c3nc4ccccc4[nH]3)c2)cc1 | inconclusive: 25.1 µM [activator, full curve]
30 | O=S(=O)(Nc1cc(O)cc2cccnc12)c1ccc(Cl)s1 | inconclusive: 44.7 µM [inhibitor, partial curve]
31 | COC(=O)CCC(=O)OC1(C)C(=O)C=C2C=C(C3CC3)N(C3CC3)C=C2C1=O (stereo unspecified) | inconclusive: 56.2 µM [inhibitor, partial curve, poor fit]
32 | O=C(N/N=C/c1ccc2ccccc2c1)c1ccc(COc2ccc3c(c2)CCC3)o1 | inconclusive: 50.1 µM [activator, partial curve]
33 | Fc1ccc(NC(=S)Nc2cccc3cnccc23)cc1 | inconclusive: 44.7 µM [inhibitor, partial curve]
34 | CC1(C)Cc2c(c(-c3ccco3)[nH]c(=O)c2C#N)CS1 | active: 44.7 µM
35 | CCC(=O)Nc1nnc(S(=O)(=O)N2CCc3ccccc32)s1 | inactive
36 | CCCCC(CC)CN1C(=O)/C(=C/c2ccncc2)SC1=S (stereo unspecified) | inconclusive: 79.4 µM [inhibitor, partial curve, poor fit]
37 | NC(N)=NCCC[C@H](N)C(=O)N1CCC[C@H]1C(=O)N1CCC[C@H]1C(=O)NCC(=O)N[C@@H](Cc1ccccc1)C(=O)N[C@@H](CO)C(=O)N1CCC[C@H]1C(=O)N[C@@H](Cc1ccccc1)C(=O)O | inactive
38 | N/C(Cc1cccc2ccccc12)=N\OC(=O)c1cccs1 | inconclusive: 50.1 µM [inhibitor, partial curve]
39 | C=CCn1cnc2sc(C(=O)Nc3ccccc3OC)c(C)c2c1=O | inconclusive: 25.1 µM [activator, single point]
40 | COc1ccc(C(=O)Nc2nc(-c3ccc(OC)cc3)c(-c3ccc([N+](=O)[O-])cc3)s2)cc1 | inconclusive: 70.8 µM [activator, single point]
41 | COc1cc(/C=C2/SC(=S)N(c3c(C)n(C)n(-c4ccccc4)c3=O)C2=O)ccc1O | inconclusive: 39.8 µM [activator, partial curve]
42 | Cc1cc(Cl)ccc1N1C(=O)CC(NNC(=O)c2cccnc2)C1=O (stereo unspecified) | inactive
43 | Cc1ccc(S(=O)(=O)CC#CCOC(=O)c2ccc([N+](=O)[O-])cc2)cc1 | inconclusive: 79.4 µM [inhibitor, partial curve, poor fit]
44 | N#Cc1c(N)n(CCOC(=O)c2ccc(Cl)cc2)c2nc3ccccc3nc12 | inconclusive: 22.4 µM [inhibitor, full curve]

Row | Compound | Potency
45 | CCOc1ccc(CC(=O)NCC(c2cccs2)S(=O)(=O)c2ccc(F)c(C)c2)cc1 (stereo unspecified) | inactive
46 | CS(=O)(=O)N1CCc2cc(-c3csc(NC(=O)Cc4ccccc4)n3)ccc21 | inactive
47 | COc1ccc(CCNC(=O)c2ccc3nc(-c4ccco4)c(-c4ccco4)nc3c2)cc1OC | inconclusive: 44.7 µM [activator, partial curve]
48 | O=C1c2ccccc2-c2onc3ccc(N4CCCC4)c1c23 | active: 39.8 µM
49 | COc1cc(/C=C/[N+](=O)[O-])ccc1OCc1cccc(C(=O)O)c1 | inconclusive: 44.7 µM [activator, partial curve]
50 | Cc1sc2nc(SCC(=O)N3CCCC3)[nH]c(=O)c2c1C | inconclusive: 0.0794 µM [inhibitor, full curve, poor fit]
51 | COc1cccc(COC(=O)c2ccc(-c3nnn(Cc4ccccc4)n3)cc2)c1 | inconclusive: 11.2 µM [inhibitor, partial curve, poor fit]
52 | COc1ccc(S(=O)(=O)Nc2cc(OC)cc3cccnc23)cc1 | inactive
53 | N#CC(C#N)=c1ccc2c(c1)NC1(CCCCC1)N=2 | inconclusive: 39.8 µM [inhibitor, partial curve]
54 | CCOC(=O)NC(=O)/C(C#N)=N/Nc1ccc(F)cc1 | inconclusive: 100 µM [inhibitor, partial curve]
55 | c1cnc2ccc3ncccc3c2c1 | inactive
56 | Cn1c(-c2ccccc2[N+](=O)[O-])[n+](C)c2ccccc21 | inactive
57 | C=C1NC(=O)c2cc(CN(C)c3ccc(C(=O)N[C@@H](CCC(=O)O)C(=O)O)s3)ccc2N1 | inactive
58 | O=C(OCC1OC(OC(=O)c2cc(O)c(O)c(OC(=O)c3cc(O)c(O)c(O)c3)c2)[C@@H](OC(=O)c2cc(O)c(O)c(OC(=O)c3cc(O)c(O)c(O)c3)c2)C(OC(=O)c2cc(O)c(O)c(OC(=O)c3cc(O)c(O)c(O)c3)c2)C1OC(=O)c1cc(O)c(O)c(OC(=O)c2cc(O)c(O)c(O)c2)c1)c1cc(O)c(O)c(OC(=O)c2cc(O)c(O)c(O)c2)c1 (stereo partly specified) | inconclusive: 31.6 µM [activator, partial curve]
59 | N=C1S/C(=C\c2ccc(O)cc2)C(=O)N1c1ccc(F)cc1 | inconclusive: 31.6 µM [activator, full curve]
60 | CC(=O)[C@]1(O)Cc2c(O)c3c(c(O)c2[C@@H](O[C@H]2C[C@H](N)[C@H](O)[C@H](C)O2)C1)C(=O)c1ccccc1C3=O | inconclusive: 28.2 µM [inhibitor, partial curve]
61 | c1ccc2nc(-c3ccc4c(c3)OCO4)ccc2c1 | inactive
62 | O=C(NN=c1c(=O)c2ccccc2c1=O)c1ccccc1 | inconclusive: 50.1 µM [inhibitor, partial curve, poor fit]
63 | O=C1NC(=S)S/C1=C\c1ccc(SCc2ccco2)o1 | inconclusive: 31.6 µM [activator, partial curve]
64 | COc1ccc2c(c1)O[C@@H](c1cccc(C(F)(F)F)c1)[C@H](OC(=O)N[C@H](C)C1CCCCC1)C2=O | inactive
65 | CC1(C)CC(=O)c2sc(NC(=O)CCS(=O)(=O)c3ccccc3)nc2C1 | inconclusive: 39.8 µM [inhibitor, partial curve]
66 | O=C1C=C(NCc2ccccc2)c2ccccc2C1=O | inconclusive: 35.5 µM [inhibitor, single point]

Three structures from above, ordered by count of non-hydrogen atoms, smallest number first.
Row | Compound | Potency
26 | O=C(COc1ccccc1)NC(=S)Nc1cccc([N+](=O)[O-])c1 | inconclusive: 2.51 µM [activator, partial curve]
16 | CCOc1cc(/C=C2\SC(=S)N(NC(=O)c3cccnc3)C2=O)ccc1O | inconclusive: 50.1 µM [activator, single point]
37 | NC(N)=NCCC[C@H](N)C(=O)N1CCC[C@H]1C(=O)N1CCC[C@H]1C(=O)NCC(=O)N[C@@H](Cc1ccccc1)C(=O)N[C@@H](CO)C(=O)N1CCC[C@H]1C(=O)N[C@@H](Cc1ccccc1)C(=O)O | inactive
